Experimental data as given in PMC4821239, “Molecular architecture of the Dam1 complex–microtubule interaction” (Open Biology, 2016).
Results are given in words; binding and its absence hold for the method and conditions named. Binding seen in cells or lysates may run through a third protein. These calls come from enrichment with a bait or labelling near it, and not all partners need be listed.

T1: Hsk3 (budding yeast) (UniProt P69852)
T1 sequence: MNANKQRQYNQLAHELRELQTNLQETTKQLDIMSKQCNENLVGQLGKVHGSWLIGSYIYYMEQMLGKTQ

B1: Duo1Δ184 (domain or fragment, budding yeast, UniProt P53168 1-183, looked up)
chain: MSEQSQLDDSTIDKLIPQIFNEMRSNLNNTTNKFPKSTGGGASDNISANSNSIRSFNSITTQSLLKESESLDKITAMIKNVTAALKNNLPVYVNQVHEVCKSTNSILDSWINIHSQAGYIHKLMSDQTYLKLINDRLHNENVNTNDEDGSTLHNVIALKKKEILDLRQKLENRKGEKDAAPAK
notes: Duo1, budding yeast; stop codon inserted at position 184; Subunit inside the Dam1 complex Duo1Δ184; also called Duo1 lacking its C terminus (Δ184); source: purified as part of the Dam1 complex Duo1Δ184 (Ni–NTA, Superose 6 size-exclusion chromatography)
B2: Dam1ΔC (domain or fragment, UniProt P53267 1-205)
chain: MSEDKAKLGTTRSATEYRLSIGSAPTSRRSSMGESSSLMKFADQEGLTSSVGEYNENTIQQLLLPKIRELSDSIITLDSNFTRLNFIHESLADLNESLGSLLYGIMSNSWCVEFSQAPHDIQDDLIAIKQLKSLEDEKNNLVMELSNMERGIKRKKDEQGENDLAKASQNKQFNQPLFPSSQVRKYRSYDNRDKRKPSKIGNNLQ
B3: Duo1Δ211 (domain or fragment, UniProt P53168 1-210)
chain: MSEQSQLDDSTIDKLIPQIFNEMRSNLNNTTNKFPKSTGGGASDNISANSNSIRSFNSITTQSLLKESESLDKITAMIKNVTAALKNNLPVYVNQVHEVCKSTNSILDSWINIHSQAGYIHKLMSDQTYLKLINDRLHNENVNTNDEDGSTLHNVIALKKKEILDLRQKLENRKGEKDAAPAKPPNQGLNPRYGVQSGRRPVPSAGISNN
B4: Spc19 (natural protein, budding yeast, UniProt Q03954 1-165, looked up)
chain: MTDALEQSVLALEGTVSVLKDSVESLKCANEPSTNLASTMLQTKRVFRLVPEYDVERSKLDLIEEVEPLVRTLGDKLRKSMGRMQRELDTLQQTYELNDLRLKKNISMDDDDALNSPDMGQEYEGRDADDVVMMASSTNEELEELKKLKEKKKQLENKLEILKQK
notes: Spc19, subunit of the budding yeast Dam1 complex; Subunit inside the recombinant 10-subunit complex; also called Sp19; source: expressed and purified as part of the Dam1 complex as described [3]
B5: Ask1 (natural protein, budding yeast, UniProt P35734 1-292, looked up)
chain: MDSASKEETLEKLDQEITVNLQKIDSNLSFCFHKITQDIIPHVATYSEICERIMDSTEWLGTMFQETGLVNLQANAAAPVGNAPVKSLVSNNVGIFPTSAEEASRQSQTDNGPNEADSAVHVNRDVHSMFNNDSIDDFHTANITSTGQILKLPDSSDEDTGSEAVPSREQTDLTGEGHGGADDEQDESTIQRQSRKRKISLLLQQQYGSSSSMVPSPIVPNKMRKQLAHEEHINNDGDNDDENSNNIESSPLKQGHHHPKGQADDNNEGPDEEESTKEVPKPGTIIHFSTNR
notes: Ask1, subunit of the budding yeast Dam1 complex; Subunit inside the recombinant 10-subunit complex; source: expressed and purified as part of the Dam1 complex as described [3]
B6: Spc34 (natural protein, budding yeast, UniProt P36131 1-295, looked up)
chain: MGESLDRCIDDINRAVDSMSTLYFKPPGIFHNAILQGASNKASIRKDITRLIKDCNHDEAYLLFKVNPEKQSVSRRDGKEGVFDYVIKRDTDMKRNRRLGRPGEKPIIHVPKEVYLNKDRLDLNNKRRRTATTSGGGLNGFIFDTDLIGSSVISNSSSGTFKALSAVFKDDPQIQRLLYALENGSVLMEEESNNQRRKTIFVEDFPTDLILKVMAEVTDLWPLTEFKQDYDQLYHNYEQLSSKLRFIKKEVLLQDDRLKTMSQYHPSSSHDVAKIIRKEKDEIRRLEMEIANLQE
notes: Spc34, subunit of the budding yeast Dam1 complex; Subunit inside the recombinant 10-subunit complex; source: expressed and purified as part of the Dam1 complex as described [3]
B7: Dad3 (protein, UniProt P69850 1-94)
chain: MEHNLSPLQQEVLDKYKQLSLDLKALDETIKELNYSQHRQQHSQQETVSPDEILQEMRDIEVKIGLVGTLLKGSVYSLILQRKQEQESLGSNSK
B8: Dad1 (protein, UniProt Q12248 1-94)
chain: MMASTSNDEEKLISTTDKYFIEQRNIVLQEINETMNSILNGLNGLNISLESSIAVGREFQSVSDLWKTLYDGLESLSDEAPIDEQPTLSQSKTK

Molecular target: T1, Hsk3 (budding yeast)
Test: affinity purification with mass spectrometry; mutant Dam1 complexes purified by the His tag on Hsk3 (Ni-NTA), then Superose 6 size-exclusion chromatography; proteins identified by mass spectrometry

Row | binding | Binder
1 | binds | B1
2 | binds | B2
3 | binds | B3
4 | binds | B4
5 | binds | B5
6 | binds | B6
7 | binds | B7
8 | binds | B8
